The other results are listed elsewhere or left out. Repeats in this data set agree poorly, so a single value says little.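 ATM8/balancer (normal ATM) heterozygous flies were crossed on treated food; parents laid eggs 5–6 days, offspring developed ~12 days, so parents and larvae ingested compound. Readout: fraction of emerged adults homozygous for ATM8 versus 2% DMSO controls. Compounds were neutral at 10–20% homozygotes, harmful below 10%, helpful above 20%.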
system: Drosophila melanogaster ATM8 (temperature-sensitive ATM allele); assay: fraction of eclosed F1 progeny that are homozygous ATM8 (rescue of developmental lethality); higher = more rescue of ATM8 developmental lethality; extreme values may be limits of the assay; conditions: compound concentration applied to food 0.2 mM; 21 °C

Compound | fraction of eclosed F1 progeny that are homozygous ATM8
CCCCOC(=O)c1ccccc1C(=O)OCCCC | 0.0323
O=C(CCCN1CCC(O)(c2ccc(Cl)cc2)CC1)c1ccc(F)cc1 | 0.325
COc1cc2c(cc1OC)[C@@H]1Cc3ccc(OC)c(OC)c3CN1CC2 | 0.143
COc1cc2c(cc1OC)C1C(=O)c3c(cc4c(c3O)C=CC(C)(C)O4)OC1CO2 (stereo not drawn) [beta-TOXICAROL] | 0.0588
NCC(=O)CCC(=O)O | 0.353
NC(=O)c1ccc[n+]([C@@H]2O[C@H](COP(=O)([O-])OP(=O)(O)OC[C@H]3O[C@@H](n4cnc5c(N)ncnc54)[C@H](O)[C@@H]3O)[C@@H](O)[C@H]2O)c1 | 0.0556
COc1c2ccoc2cc2oc(C)cc(=O)c12 | 0.132
COc1ccc(CN(CCN(C)C)c2ncccn2)cc1 | 0.0746
COc1cc2c(cc1OC)[C@@H]1C(=O)c3ccc4c(c3O[C@@H]1CO2)C=CC(C)(C)O4 | 0.364
S=c1[nH]cnc2nc[nH]c12 | 0.162
C=C(C)[C@@H]1CC[C@]2(C)CC[C@]3(C)[C@H](CC[C@@H]4[C@@]5(C)CC[C@H](O)C(C)(C)[C@@H]5CC[C@]43C)[C@@H]12 | 0.105
CCCCCCCCNC(C)C(O)c1ccc(SC(C)C)cc1 (configuration not stated) | 0.205
CC(=O)CC(c1ccc([N+](=O)[O-])cc1)c1c(O)c2ccccc2oc1=O (configuration not stated) | 0.0417
C[N+]1(C)CCc2cc3c(cc2[C@H]1[C@@H]1OC(=O)c2c1ccc1c2OCO1)OCO3 | 0.257
C=CCc1cc(OC)c2c(c1OC)OCO2 | 0.105
CC1=CC2C(CC1=O)C(C)=CCC2C(C)C (configuration not stated) | 0.226
CCC(C)C(=O)OC1CC2(C)C(c3ccoc3)OC(=O)CC23OC2(C)OC34C(OC(=O)C(C)C)C3(O)C(OC(=O)C5(C)OC5C)C5(C)CC3(O)C(C)(C5CC(=O)OC)C14O2 (configuration not stated) | 0.0571
NCCCCN | 0.1
O=C1OC(=O)[C@H]2[C@@H]1[C@@H]1CC[C@H]2O1 | 0.214
CC(C)NC(=N)NC(=N)Nc1ccc(Cl)cc1 | 0.429
C[C@]12CCC3c4ccc(OS(=O)(=O)O)cc4CCC3C1CC[C@H]2O (some centres not stated) | 0

Compound | fraction of eclosed F1 progeny that are homozygous ATM8
CC1(C)S[C@@H]2[C@H](NC(=O)COc3ccccc3)C(=O)N2[C@H]1C(=O)O | 0.125
CCCC(=O)O[C@]1(C(=O)CO)CC[C@H]2[C@@H]3CCC4=CC(=O)CC[C@]4(C)[C@H]3[C@@H](O)C[C@@]21C | 0.0161
COc1ccc2c3c1O[C@H]1C[C@@H](O)C=C[C@@]31CCN(C)C2 | 0.0606
O=c1[nH]c(=O)n([C@H]2C[C@H](O)[C@@H](CO)O2)cc1C(F)(F)F | 0.16
Cc1nnc(SCC2=C(C(=O)O)N3C(=O)[C@@H](NC(=O)Cn4cnnn4)[C@H]3SC2)s1 | 0.0333
NC(=O)N1c2ccccc2CC(=O)c2ccccc21 | 0.118
c1cncc([C@@H]2CCCCN2)c1 | 0.2
O=C(C=Cc1ccc(O)cc1)c1ccccc1O | 0.205
CC(C)(C#N)O[C@@H]1O[C@H](CO)[C@@H](O)[C@H](O)[C@H]1O | 0.0976
CC(C)Cn1cnc2c(N)nc3ccccc3c21 | 0.05
CC(=O)O[C@H]1C(=O)[C@@]2(C)[C@H]([C@H](OC(=O)c3ccccc3)[C@]3(O)C[C@H](O)C(C)=C1C3(C)C)[C@]1(OC(C)=O)CO[C@@H]1C[C@@H]2O | 0.0595
O=C1N=C(O)NC1(c1ccccc1)c1ccccc1 | 0.333
C=C(C)[C@H]1Cc2c(ccc3c(=O)c4c(oc23)COc2cc(OC)c(OC)cc2-4)O1 | 0.266
CC[N+](CC)(CC(=O)Nc1c(C)cccc1C)Cc1ccccc1 | 0.27
COc1cc(NS(=O)(=O)c2ccc(N)cc2)nc(OC)n1 | 0.167
CC1(C)O[C@@H]2[C@@H](CO[C@@]3(COS(N)(=O)=O)OC(C)(C)O[C@@H]23)O1 | 0.0816
Cc1cccc(Nc2ccncc2S(=O)(=O)NC(=O)NC(C)C)c1 | 0.37
CC(=O)O[C@@H]1CC[C@@]2(C)C(C[C@@H](OC(C)=O)[C@@]3(C)C4=CC(=O)O[C@@H](c5ccoc5)[C@]4(C)CCC23)C1(C)C (stereo partly drawn) [3alpha-ACETOXYDIHYDRODEOXYGEDUNIN] | 0.105
C=C(C)[C@H]1COc2cc3oc(=O)ccc3cc2O1 | 0.0278
CC(C)CCC[C@@H](C)[C@H]1CC[C@H]2[C@@H]3CC[C@H]4CC(=O)CC[C@]4(C)[C@H]3CC[C@]12C | 0.163
CC(=O)O[C@H]1C[C@@H](O)C(C)(C)[C@@H]2C[C@@H](OC(C)=O)[C@]3(C)[C@H](CC[C@@]4(C)[C@@H](c5ccoc5)OC(=O)[C@H]5O[C@@]534)[C@@]12C | 0.106

Two entries from above, as tab-separated lines.
Compound	fraction of eclosed F1 progeny that are homozygous ATM8
Cc1cccc(Nc2ccncc2S(=O)(=O)NC(=O)NC(C)C)c1	0.37
CC(=O)O[C@@H]1CC[C@@]2(C)C(C[C@@H](OC(C)=O)[C@@]3(C)C4=CC(=O)O[C@@H](c5ccoc5)[C@]4(C)CCC23)C1(C)C (stereo partly drawn) [3alpha-ACETOXYDIHYDRODEOXYGEDUNIN]	0.105
